According to PMC7284315:
These are yes or no findings as the source states them, for the method shown. In cells and extracts the contact can be indirect. These calls come from enrichment with a bait or labelling near it, and not all partners need be listed. For part of these data: No binding means not detected with the bait. For part of these data: Sequences can lack the tags named with a protein. Blank lines part the entries; values can stand above or below the molecule they belong to.

Amino acid sequences for entries named in this document (tags omitted). A change or cut given only in a name is not applied to a line headed by its entry.
UniProt Q2M2I3: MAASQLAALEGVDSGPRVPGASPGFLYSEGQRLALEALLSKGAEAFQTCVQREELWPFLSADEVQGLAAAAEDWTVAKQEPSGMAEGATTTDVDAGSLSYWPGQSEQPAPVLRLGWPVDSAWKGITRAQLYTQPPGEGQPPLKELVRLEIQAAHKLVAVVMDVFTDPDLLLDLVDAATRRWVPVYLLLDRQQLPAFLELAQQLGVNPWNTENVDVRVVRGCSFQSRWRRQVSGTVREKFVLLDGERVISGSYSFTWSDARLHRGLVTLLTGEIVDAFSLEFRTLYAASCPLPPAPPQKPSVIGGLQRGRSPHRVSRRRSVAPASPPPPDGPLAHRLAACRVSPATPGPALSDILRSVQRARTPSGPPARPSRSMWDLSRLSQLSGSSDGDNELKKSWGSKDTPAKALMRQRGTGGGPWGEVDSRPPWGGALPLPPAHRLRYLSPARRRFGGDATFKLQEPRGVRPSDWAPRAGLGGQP
UniProt P48729: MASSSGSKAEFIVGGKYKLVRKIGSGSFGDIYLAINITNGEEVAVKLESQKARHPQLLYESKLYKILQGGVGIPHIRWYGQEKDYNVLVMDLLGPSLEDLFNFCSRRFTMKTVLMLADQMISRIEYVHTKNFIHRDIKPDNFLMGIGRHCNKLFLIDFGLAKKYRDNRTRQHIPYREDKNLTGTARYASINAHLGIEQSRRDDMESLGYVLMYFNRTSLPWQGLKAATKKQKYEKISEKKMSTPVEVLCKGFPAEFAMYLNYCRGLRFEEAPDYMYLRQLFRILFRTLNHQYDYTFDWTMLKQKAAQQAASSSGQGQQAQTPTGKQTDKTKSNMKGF
UniProt P48730: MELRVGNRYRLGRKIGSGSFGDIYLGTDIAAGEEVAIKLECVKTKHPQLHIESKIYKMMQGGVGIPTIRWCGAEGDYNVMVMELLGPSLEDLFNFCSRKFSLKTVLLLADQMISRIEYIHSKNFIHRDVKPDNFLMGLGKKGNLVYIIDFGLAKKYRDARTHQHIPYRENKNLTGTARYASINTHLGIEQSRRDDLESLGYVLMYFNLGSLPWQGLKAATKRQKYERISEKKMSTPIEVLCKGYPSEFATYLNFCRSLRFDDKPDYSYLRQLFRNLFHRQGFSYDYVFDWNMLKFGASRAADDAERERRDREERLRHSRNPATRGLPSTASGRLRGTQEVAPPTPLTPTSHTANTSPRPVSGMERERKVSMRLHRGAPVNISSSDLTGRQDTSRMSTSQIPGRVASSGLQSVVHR
UniProt P49674: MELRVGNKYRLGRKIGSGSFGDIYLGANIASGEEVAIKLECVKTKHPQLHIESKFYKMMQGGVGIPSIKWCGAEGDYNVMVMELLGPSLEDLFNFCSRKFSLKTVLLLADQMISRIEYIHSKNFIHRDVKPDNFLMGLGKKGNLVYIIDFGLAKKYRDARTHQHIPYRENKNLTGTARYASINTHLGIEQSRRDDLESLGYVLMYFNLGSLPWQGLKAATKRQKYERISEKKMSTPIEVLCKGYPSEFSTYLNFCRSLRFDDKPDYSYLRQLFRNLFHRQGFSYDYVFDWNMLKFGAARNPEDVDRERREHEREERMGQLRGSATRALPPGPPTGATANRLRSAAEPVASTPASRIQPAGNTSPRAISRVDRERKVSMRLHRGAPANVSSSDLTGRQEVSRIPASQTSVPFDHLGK
UniProt Q7Z7G8: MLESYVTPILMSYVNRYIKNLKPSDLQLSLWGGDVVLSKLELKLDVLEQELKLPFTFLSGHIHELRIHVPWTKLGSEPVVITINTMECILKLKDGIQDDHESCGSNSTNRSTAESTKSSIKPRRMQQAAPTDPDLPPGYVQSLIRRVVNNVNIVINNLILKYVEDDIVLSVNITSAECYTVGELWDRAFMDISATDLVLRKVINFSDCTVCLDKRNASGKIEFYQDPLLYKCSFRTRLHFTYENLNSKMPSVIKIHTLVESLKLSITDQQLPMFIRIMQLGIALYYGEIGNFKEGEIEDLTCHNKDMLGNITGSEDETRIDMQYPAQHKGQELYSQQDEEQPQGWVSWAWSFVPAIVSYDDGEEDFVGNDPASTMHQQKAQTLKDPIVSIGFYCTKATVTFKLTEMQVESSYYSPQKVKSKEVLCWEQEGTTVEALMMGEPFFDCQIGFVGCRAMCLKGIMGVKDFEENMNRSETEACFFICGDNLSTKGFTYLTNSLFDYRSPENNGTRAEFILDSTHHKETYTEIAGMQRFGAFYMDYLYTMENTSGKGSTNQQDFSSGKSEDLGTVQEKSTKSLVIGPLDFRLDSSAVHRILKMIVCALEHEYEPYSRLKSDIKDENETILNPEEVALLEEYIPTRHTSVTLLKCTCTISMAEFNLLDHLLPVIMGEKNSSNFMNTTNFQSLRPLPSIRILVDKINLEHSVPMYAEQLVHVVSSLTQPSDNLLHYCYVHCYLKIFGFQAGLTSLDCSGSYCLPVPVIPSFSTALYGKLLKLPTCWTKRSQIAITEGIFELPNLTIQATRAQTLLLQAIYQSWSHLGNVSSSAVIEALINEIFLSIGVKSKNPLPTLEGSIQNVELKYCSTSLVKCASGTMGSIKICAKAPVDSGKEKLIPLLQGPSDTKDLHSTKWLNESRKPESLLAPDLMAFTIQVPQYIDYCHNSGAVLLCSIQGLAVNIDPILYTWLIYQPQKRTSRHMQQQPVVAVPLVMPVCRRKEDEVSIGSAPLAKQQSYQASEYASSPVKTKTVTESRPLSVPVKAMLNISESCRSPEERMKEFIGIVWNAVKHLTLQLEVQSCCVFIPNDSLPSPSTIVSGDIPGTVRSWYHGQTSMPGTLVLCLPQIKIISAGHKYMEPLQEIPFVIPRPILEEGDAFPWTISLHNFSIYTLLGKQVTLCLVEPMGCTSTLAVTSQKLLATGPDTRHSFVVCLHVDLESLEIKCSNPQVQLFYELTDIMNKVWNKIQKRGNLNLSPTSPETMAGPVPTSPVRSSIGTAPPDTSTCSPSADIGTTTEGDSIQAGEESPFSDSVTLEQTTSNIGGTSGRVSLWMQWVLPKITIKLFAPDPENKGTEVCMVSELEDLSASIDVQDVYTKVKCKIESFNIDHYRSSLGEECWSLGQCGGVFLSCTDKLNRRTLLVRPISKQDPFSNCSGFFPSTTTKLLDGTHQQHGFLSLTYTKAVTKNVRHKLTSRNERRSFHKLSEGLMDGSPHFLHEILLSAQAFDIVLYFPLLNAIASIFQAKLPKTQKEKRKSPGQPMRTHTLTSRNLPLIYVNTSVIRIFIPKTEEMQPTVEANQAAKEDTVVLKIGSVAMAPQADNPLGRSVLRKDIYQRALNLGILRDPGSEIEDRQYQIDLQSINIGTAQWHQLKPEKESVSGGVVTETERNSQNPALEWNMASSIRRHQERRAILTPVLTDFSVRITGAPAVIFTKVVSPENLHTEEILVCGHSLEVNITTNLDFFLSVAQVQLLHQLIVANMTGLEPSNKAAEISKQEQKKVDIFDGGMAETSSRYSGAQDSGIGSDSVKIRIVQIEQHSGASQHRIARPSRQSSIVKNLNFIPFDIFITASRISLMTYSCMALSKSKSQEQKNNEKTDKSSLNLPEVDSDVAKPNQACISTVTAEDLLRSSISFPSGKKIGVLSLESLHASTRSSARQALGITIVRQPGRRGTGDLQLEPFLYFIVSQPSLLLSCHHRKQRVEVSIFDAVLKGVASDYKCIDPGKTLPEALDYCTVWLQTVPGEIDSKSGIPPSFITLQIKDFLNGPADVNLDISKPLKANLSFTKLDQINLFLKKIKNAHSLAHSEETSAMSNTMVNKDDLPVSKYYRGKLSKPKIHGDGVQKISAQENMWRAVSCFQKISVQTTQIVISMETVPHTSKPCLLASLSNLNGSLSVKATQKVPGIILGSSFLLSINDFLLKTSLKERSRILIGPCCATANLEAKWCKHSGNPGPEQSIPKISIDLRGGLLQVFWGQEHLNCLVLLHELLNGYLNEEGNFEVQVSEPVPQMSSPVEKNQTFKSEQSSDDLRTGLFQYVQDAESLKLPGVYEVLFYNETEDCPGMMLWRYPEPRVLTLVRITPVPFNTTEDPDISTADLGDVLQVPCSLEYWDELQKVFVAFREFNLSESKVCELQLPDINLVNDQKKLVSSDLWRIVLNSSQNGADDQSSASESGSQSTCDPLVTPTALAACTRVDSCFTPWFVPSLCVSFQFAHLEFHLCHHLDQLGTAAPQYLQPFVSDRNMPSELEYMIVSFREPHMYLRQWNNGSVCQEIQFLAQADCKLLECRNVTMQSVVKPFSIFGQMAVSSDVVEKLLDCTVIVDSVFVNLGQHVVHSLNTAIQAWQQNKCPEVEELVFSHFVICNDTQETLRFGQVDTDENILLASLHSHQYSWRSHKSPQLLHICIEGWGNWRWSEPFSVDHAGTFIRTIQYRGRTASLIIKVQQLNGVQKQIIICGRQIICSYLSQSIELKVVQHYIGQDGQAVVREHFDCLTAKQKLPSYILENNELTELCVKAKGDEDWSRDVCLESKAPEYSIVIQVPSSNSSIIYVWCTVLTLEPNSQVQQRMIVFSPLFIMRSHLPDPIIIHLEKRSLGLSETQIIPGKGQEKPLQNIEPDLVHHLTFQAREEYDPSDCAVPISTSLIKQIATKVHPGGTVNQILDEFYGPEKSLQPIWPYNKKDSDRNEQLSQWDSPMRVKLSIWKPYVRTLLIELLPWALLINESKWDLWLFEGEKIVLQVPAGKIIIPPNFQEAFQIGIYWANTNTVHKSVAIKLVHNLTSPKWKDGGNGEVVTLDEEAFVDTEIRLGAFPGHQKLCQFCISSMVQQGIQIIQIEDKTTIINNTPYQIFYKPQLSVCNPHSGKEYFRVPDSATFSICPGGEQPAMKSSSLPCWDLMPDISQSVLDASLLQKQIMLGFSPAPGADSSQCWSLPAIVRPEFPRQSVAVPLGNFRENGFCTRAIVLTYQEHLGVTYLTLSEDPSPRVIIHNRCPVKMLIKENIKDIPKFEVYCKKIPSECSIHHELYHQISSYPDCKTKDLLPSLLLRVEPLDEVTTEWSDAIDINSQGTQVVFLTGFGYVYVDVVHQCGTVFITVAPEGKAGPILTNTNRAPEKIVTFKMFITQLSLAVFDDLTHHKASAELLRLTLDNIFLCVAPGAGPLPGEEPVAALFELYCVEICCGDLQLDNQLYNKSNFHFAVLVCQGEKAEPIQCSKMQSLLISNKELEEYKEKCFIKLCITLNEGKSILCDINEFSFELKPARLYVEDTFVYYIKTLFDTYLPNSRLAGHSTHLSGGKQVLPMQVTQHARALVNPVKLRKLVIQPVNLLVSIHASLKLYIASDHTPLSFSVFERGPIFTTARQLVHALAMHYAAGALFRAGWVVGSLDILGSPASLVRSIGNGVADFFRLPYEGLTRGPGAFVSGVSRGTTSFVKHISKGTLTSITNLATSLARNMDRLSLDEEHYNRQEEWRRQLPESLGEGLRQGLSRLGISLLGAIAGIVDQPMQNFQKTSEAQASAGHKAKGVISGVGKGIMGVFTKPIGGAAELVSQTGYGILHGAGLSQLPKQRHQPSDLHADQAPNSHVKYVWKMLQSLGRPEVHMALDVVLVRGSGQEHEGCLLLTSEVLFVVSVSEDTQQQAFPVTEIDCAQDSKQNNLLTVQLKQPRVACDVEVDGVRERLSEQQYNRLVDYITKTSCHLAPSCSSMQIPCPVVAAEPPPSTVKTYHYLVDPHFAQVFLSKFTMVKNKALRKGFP

Tests used:
[1] = molecular target: T1, FAM83H-GFP (U2OS Flp-In T-REx, doxycycline-induced) (human) (UniProt Q6ZRV2); experiment: proximity labelling; FLAG-TurboID-aGFP6M (or FLAG-TurboID control) in U2OS Flp-In T-REx cells expressing FAM83H-GFP or FAM83E-GFP; 50 μM biotin 10 min; streptavidin beads 16 h from 4 mg extract; LC-MS/MS
T1 sequence: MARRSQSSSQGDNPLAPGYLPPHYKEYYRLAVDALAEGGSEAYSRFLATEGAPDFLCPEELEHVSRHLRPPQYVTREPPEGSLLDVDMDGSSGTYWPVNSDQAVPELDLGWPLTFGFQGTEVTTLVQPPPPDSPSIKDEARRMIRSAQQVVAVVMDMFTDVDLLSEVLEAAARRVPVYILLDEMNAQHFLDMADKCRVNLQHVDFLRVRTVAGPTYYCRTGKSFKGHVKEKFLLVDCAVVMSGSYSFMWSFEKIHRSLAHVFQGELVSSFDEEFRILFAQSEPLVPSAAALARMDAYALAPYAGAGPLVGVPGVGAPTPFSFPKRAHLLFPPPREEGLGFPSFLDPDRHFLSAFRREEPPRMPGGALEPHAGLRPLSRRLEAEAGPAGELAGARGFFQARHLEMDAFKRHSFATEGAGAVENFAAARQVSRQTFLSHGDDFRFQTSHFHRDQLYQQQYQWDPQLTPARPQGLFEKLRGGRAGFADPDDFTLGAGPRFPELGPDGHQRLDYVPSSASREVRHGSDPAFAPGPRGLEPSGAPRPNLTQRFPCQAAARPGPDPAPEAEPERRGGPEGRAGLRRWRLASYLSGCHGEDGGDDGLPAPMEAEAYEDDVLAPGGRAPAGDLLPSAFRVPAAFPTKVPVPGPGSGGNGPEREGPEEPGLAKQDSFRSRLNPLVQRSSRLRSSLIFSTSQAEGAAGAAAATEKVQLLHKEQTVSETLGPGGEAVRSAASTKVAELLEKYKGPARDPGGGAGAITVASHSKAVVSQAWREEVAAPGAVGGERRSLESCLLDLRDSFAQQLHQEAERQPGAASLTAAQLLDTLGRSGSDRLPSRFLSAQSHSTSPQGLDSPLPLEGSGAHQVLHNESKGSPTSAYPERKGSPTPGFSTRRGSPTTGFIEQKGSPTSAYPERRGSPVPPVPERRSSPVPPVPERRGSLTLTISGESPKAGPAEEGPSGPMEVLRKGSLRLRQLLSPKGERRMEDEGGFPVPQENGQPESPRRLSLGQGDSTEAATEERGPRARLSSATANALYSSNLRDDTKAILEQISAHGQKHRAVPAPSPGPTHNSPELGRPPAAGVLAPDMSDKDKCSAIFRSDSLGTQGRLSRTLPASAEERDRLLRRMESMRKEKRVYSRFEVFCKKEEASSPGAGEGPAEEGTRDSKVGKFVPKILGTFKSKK

[2] = molecular target: FAM83E-GFP (U2OS Flp-In T-REx, doxycycline-induced) (UniProt Q2M2I3); experiment: as above
[3] = molecular target: T2, FAM83H with endogenous C-terminal GFP tag (A549 FAM83H^GFP/GFP) (human (endogenous in A549)) (UniProt Q6ZRV2); experiment: affinity purification with mass spectrometry; GFP-Trap A beads, 16 h, 6 mg extract of A549 FAM83H^GFP/GFP or A549 wild type cells; SDS-PAGE, trypsin, LC-MS/MS
T2 sequence: T1 sequence

[4] = molecular target: T1, FAM83H-GFP (U2OS Flp-In T-REx, doxycycline-induced) (human); experiment: proximity labelling; FLAG-TurboID-aGFP6M (or FLAG-TurboID control) in U2OS Flp-In T-REx cells expressing FAM83H-GFP or FAM83E-GFP; 50 μM biotin 10 min; streptavidin pull-down; immunoblot
[5] = molecular target: FAM83E-GFP (U2OS Flp-In T-REx, doxycycline-induced) (UniProt Q2M2I3); experiment: as above
[6] = molecular target: T3, GFP-FAM83H (HEK-293 Flp-In T-REx, doxycycline-induced) (human) (UniProt Q6ZRV2); experiment: affinity purification with mass spectrometry; anti-GFP IPs from HEK-293 (N-terminal GFP) or U2OS (C-terminal GFP) Flp-In T-REx cells induced to express GFP-tagged FAM83 proteins; LC-MS/MS; data set PXD009335
T3 sequence: T1 sequence

[7] = molecular target: mCherry-CK1α (endogenous knock-in, U2OS CK1^mCherry/mCherry) (human (endogenous in U2OS)) (UniProt P48729); experiment: affinity purification with mass spectrometry; mCherry IP from lysates of U2OS CK1^mCherry/mCherry knock-in cells, U2OS wild type cells as control; mass spectrometry
[8] = molecular target: mCherry-CK1δ (endogenous knock-in, U2OS CK1^mCherry/mCherry) (human (endogenous in U2OS)) (UniProt P48730); experiment: as above
[9] = molecular target: mCherry-CK1ε (endogenous knock-in, U2OS CK1^mCherry/mCherry) (human (endogenous in U2OS)) (UniProt P49674); experiment: as above

binding [1]: no binding
binding [2]: binds
Molecule: AKAP9, endogenous (U2OS) (from UniProt Q99996 1-3907)

binding [6]: binds
B1: protein UNC45 homolog A (UNC45A), endogenous (protein, UniProt Q9H3U1 1-944)
chain: MTVSGPGTPEPRPATPGASSVEQLRKEGNELFKCGDYGGALAAYTQALGLDATPQDQAVLHRNRAACHLKLEDYDKAETEASKAIEKDGGDVKALYRRSQALEKLGRLDQAVLDLQRCVSLEPKNKVFQEALRNIGGQIQEKVRYMSSTDAKVEQMFQILLDPEEKGTEKKQKASQNLVVLAREDAGAEKIFRSNGVQLLQRLLDMGETDLMLAALRTLVGICSEHQSRTVATLSILGTRRVVSILGVESQAVSLAACHLLQVMFDALKEGVKKGFRGKEGAIIVDPARELKVLISNLLDLLTEVGVSGQGRDNALTLLIKAVPRKSLKDPNNSLTLWVIDQGLKKILEVGGSLQDPPGELAVTANSRMSASILLSKLFDDLKCDAERENFHRLCENYIKSWFEGQGLAGKLRAIQTVSCLLQGPCDAGNRALELSGVMESVIALCASEQEEEQLVAVEALIHAAGKAKRASFITANGVSLLKDLYKCSEKDSIRIRALVGLCKLGSAGGTDFSMKQFAEGSTLKLAKQCRKWLCNDQIDAGTRRWAVEGLAYLTFDADVKEEFVEDAAALKALFQLSRLEERSVLFAVASALVNCTNSYDYEEPDPKMVELAKYAKQHVPEQHPKDKPSFVRARVKKLLAAGVVSAMVCMVKTESPVLTSSCRELLSRVFLALVEEVEDRGTVVAQGGGRALIPLALEGTDVGQTKAAQALAKLTITSNPEMTFPGERIYEVVRPLVSLLHLNCSGLQNFEALMALTNLAGISERLRQKILKEKAVPMIEGYMFEEHEMIRRAATECMCNLAMSKEVQDLFEAQGNDRLKLLVLYSGEDDELLQRAAAGGLAMLTSMRPTLCSRIPQVTTHWLEILQALLLSSNQELQHRGAVVVLNMVEASREIASTLMESEMMEILSVLAKGDHSPVTRAAAACLDKAVEYGLIQPNQDGE

binding [7]: binds
binding [8]: binds
binding [9]: binds
B3: FAM83H, endogenous (U2OS) (protein, UniProt Q6ZRV2 1-1179)
chain: T1 sequence

The next lines start with the molecule.

Molecule: VPS13B, endogenous (U2OS) (from UniProt Q7Z7G8 1-4022)
binding [1]: no binding
binding [2]: binds

Molecule: protein kinase CK1 isoform ε (CK1ε), endogenous (from UniProt P49674 1-416) (enzyme)
binding [1]: binds
binding [2]: binds
binding [3]: binds
binding [4]: binds
binding [5]: binds

B2: CEP131, endogenous (U2OS) (protein, UniProt Q9UPN4 1-1083)
chain: MKGTRAIGSVPERSPAGVDLSLTGLPPPVSRRPGSAATTKPIVRSVSVVTGSEQKRKVLEATGPGGSQAINNLRRSNSTTQVSQPRSGSPRPTEPTDFLMLFEGSPSGKKRPASLSTAPSEKGATWNVLDDQPRGFTLPSNARSSSALDSPAGPRRKECTVALAPNFTANNRSNKGAVGNCVTTMVHNRYTPSERAPPLKSSNQTAPSLNNIIKAATCEGSESSGFGKLPKNVSSATHSARNNTGGSTGLPRRKEVTEEEAERFIHQVNQATVTIQRWYRHQVQRRGAGAARLEHLLQAKREEQRQRSGEGTLLDLHQQKEAARRKAREEKARQARRAAIQELQQKRALRAQKASTAERGPPENPRETRVPGMRQPAQELSPTPGGTAHQALKANNTGGGLPAAGPGDRCLPTSDSSPEPQQPPEDRTQDVLAQDAAGDNLEMMAPSRGSAKSRGPLEELLHTLQLLEKEPDVLPRPRTHHRGRYAWASEVTTEDDASSLTADNLEKFGKLSAFPEPPEDGTLLSEAKLQSIMSFLDEMEKSGQDQLDSQQEGWVPEAGPGPLELGSEVSTSVMRLKLEVEEKKQAMLLLQRALAQQRDLTARRVKETEKALSRQLQRQREHYEATIQRHLAFIDQLIEDKKVLSEKCEAVVAELKQEDQRCTERVAQAQAQHELEIKKLKELMSATEKARREKWISEKTKKIKEVTVRGLEPEIQKLIARHKQEVRRLKSLHEAELLQSDERASQRCLRQAEELREQLEREKEALGQQERERARQRFQQHLEQEQWALQQQRQRLYSEVAEERERLGQQAARQRAELEELRQQLEESSSALTRALRAEFEKGREEQERRHQMELNTLKQQLELERQAWEAGRTRKEEAWLLNREQELREEIRKGRDKEIELVIHRLEADMALAKEESEKAAESRIKRLRDKYEAELSELEQSERKLQERCSELKGQLGEAEGENLRLQGLVRQKERALEDAQAVNEQLSSERSNLAQVIRQEFEDRLAASEEETRQAKAELATLQARQQLELEEVHRRVKTALARKEEAVSSLRTQHEAAVKRADHLEELLEQHRRPTPSTK
binding [1]: no binding
binding [2]: binds
